PubChem BioAssay AID652272, Drosophila RNAi Screening Center, 2013
Assay: 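Finding fly genes that regulate Hedgehog signal transduction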 (primary screen). Cell system: Drosophila clone 8 (Cl8) cells. Reagents: long dsRNA against Drosophila genes. Detection: 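Firefly light from a Hedgehog-responsive ptc promoter reporter and Renilla reference light, both read on a plate reader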. Reading the numbers: firefly Hh reporter signal: higher = more ptc reporter light; Renilla reference signal: higher = more Renilla control light. Active means: 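Hit when the z-score averaged over two replicates is under -2 or over +3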. Meaning of the calls: active = hit: reporter lowered or raised; inactive = not a hit.
In all, the deposit lists about 21,000 reagents; below is an unselected part of those that have a named target and a result. Over the whole deposit, 503 (2.4%) are marked active. 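Raw plate light values, not normalised; calls rest on replicate z-scores that were not deposited; hits include reporter decreases as well as increases.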 Not given: the amount of reagent, the time to read-out.

{"gene": "CG17237", "amplicon": "DRSC00491", "firefly Hh reporter signal, replicate 1": 1.20e5, "firefly Hh reporter signal, replicate 2": 1.33e5, "Renilla reference signal, replicate 1": 2922, "Renilla reference signal, replicate 2": 3043, "Call": "inactive"}
{"gene": "Mnr", "amplicon": "DRSC20549", "firefly Hh reporter signal, replicate 1": 64536, "firefly Hh reporter signal, replicate 2": 1.63e5, "Renilla reference signal, replicate 1": 2026, "Renilla reference signal, replicate 2": 7081, "Call": "inactive"}
{"gene": "Mnr", "amplicon": "DRSC20550", "firefly Hh reporter signal, replicate 1": 7.64e5, "firefly Hh reporter signal, replicate 2": 1.18e5, "firefly Hh reporter signal, replicate 3": 3.85e5, "Renilla reference signal, replicate 1": 5850, "Renilla reference signal, replicate 2": 3408, "Call": "inactive"}
{"gene": "CG5382", "amplicon": "DRSC15786", "firefly Hh reporter signal, replicate 1": 1.14e5, "firefly Hh reporter signal, replicate 2": 87398, "Renilla reference signal, replicate 1": 4897, "Renilla reference signal, replicate 2": 3472, "Call": "inactive"}
{"gene": "CG1024", "amplicon": "DRSC12496", "firefly Hh reporter signal, replicate 1": 48025, "firefly Hh reporter signal, replicate 2": 1.05e5, "Renilla reference signal, replicate 1": 1472, "Renilla reference signal, replicate 2": 3489, "Call": "inactive"}
{"gene": "mdu", "amplicon": "DRSC19860", "firefly Hh reporter signal, replicate 1": 1.23e5, "firefly Hh reporter signal, replicate 2": 1.32e5, "Renilla reference signal, replicate 1": 2800, "Renilla reference signal, replicate 2": 3898, "Call": "inactive"}
{"gene": "ssh", "amplicon": "DRSC16730", "firefly Hh reporter signal, replicate 1": 4.11e5, "firefly Hh reporter signal, replicate 2": 1.06e5, "Renilla reference signal, replicate 1": 22609, "Renilla reference signal, replicate 2": 3424, "Call": "inactive"}
{"gene": "Kr-h1", "amplicon": "DRSC00908", "firefly Hh reporter signal, replicate 1": 5.50e5, "firefly Hh reporter signal, replicate 2": 1.40e5, "Renilla reference signal, replicate 1": 24077, "Renilla reference signal, replicate 2": 5777, "Call": "inactive"}
{"gene": "Kr-h1", "amplicon": "DRSC03355", "firefly Hh reporter signal, replicate 1": 83312, "firefly Hh reporter signal, replicate 2": 38641, "Renilla reference signal, replicate 1": 3425, "Renilla reference signal, replicate 2": 1732, "Call": "inactive"}
{"gene": "Ddc", "amplicon": "DRSC03314", "firefly Hh reporter signal, replicate 1": 86914, "firefly Hh reporter signal, replicate 2": 57673, "Renilla reference signal, replicate 1": 2076, "Renilla reference signal, replicate 2": 4992, "Call": "inactive"}
{"gene": "Achl", "amplicon": "DRSC06665", "firefly Hh reporter signal, replicate 1": 82018, "firefly Hh reporter signal, replicate 2": 50861, "Renilla reference signal, replicate 1": 2128, "Renilla reference signal, replicate 2": 4259, "Call": "inactive"}
{"gene": "CG16820", "amplicon": "DRSC02522", "firefly Hh reporter signal, replicate 1": 1.42e5, "firefly Hh reporter signal, replicate 2": 87329, "Renilla reference signal, replicate 1": 5977, "Renilla reference signal, replicate 2": 3888, "Call": "inactive"}
{"gene": "LPCAT", "amplicon": "DRSC18157", "firefly Hh reporter signal, replicate 1": 1.13e5, "firefly Hh reporter signal, replicate 2": 2.55e5, "Renilla reference signal, replicate 1": 1728, "Renilla reference signal, replicate 2": 9589, "Call": "inactive"}
{"gene": "LPCAT", "amplicon": "DRSC18257", "firefly Hh reporter signal, replicate 1": 73773, "firefly Hh reporter signal, replicate 2": 2.02e5, "Renilla reference signal, replicate 1": 2535, "Renilla reference signal, replicate 2": 8650, "Call": "inactive"}

Entries listed so far whose gene name starts with M or m:
{"gene": "Mnr", "amplicon": "DRSC20549", "firefly Hh reporter signal, replicate 1": 64536, "firefly Hh reporter signal, replicate 2": 1.63e5, "Renilla reference signal, replicate 1": 2026, "Renilla reference signal, replicate 2": 7081, "Call": "inactive"}
{"gene": "Mnr", "amplicon": "DRSC20550", "firefly Hh reporter signal, replicate 1": 7.64e5, "firefly Hh reporter signal, replicate 2": 1.18e5, "firefly Hh reporter signal, replicate 3": 3.85e5, "Renilla reference signal, replicate 1": 5850, "Renilla reference signal, replicate 2": 3408, "Call": "inactive"}
{"gene": "mdu", "amplicon": "DRSC19860", "firefly Hh reporter signal, replicate 1": 1.23e5, "firefly Hh reporter signal, replicate 2": 1.32e5, "Renilla reference signal, replicate 1": 2800, "Renilla reference signal, replicate 2": 3898, "Call": "inactive"}
